Assay [1] concerns the target CaMKIIδ, endogenous in mouse pancreatic islets (mouse (endogenous in pancreatic islets)) (UniProt Q6PHZ2). Kind of assay: co-IP; lysate of ∼1,000 wt mouse pancreatic islets (20 mM Tris-HCl pH 8.0, 137 mM NaCl, 2 mM EDTA, 1% Nonidet P-40); precipitated overnight at 4 °C with anti-CaMKIIδ antibody or goat IgG, protein A/G agarose; blots with anti-barr2, anti-CaMKII (pan) and anti-CaV1.2 (α1) antibodies.

Amino acid sequences for entries named in this document (tags omitted). A change or cut given only in a name is not applied to a line headed by its entry.
UniProt Q6PHZ2: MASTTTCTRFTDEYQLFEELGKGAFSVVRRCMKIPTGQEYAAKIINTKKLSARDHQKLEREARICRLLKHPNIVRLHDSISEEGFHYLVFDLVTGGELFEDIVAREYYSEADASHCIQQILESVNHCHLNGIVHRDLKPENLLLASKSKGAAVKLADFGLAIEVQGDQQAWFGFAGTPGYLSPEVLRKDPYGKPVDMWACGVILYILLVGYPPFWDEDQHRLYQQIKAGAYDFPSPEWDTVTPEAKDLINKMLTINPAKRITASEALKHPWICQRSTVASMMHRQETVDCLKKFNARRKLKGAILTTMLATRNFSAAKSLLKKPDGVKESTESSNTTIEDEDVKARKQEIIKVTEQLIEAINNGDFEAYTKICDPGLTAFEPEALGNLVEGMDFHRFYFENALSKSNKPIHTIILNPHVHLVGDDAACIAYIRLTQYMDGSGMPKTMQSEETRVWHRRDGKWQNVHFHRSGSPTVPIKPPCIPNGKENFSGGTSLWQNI
UniProt Q01815: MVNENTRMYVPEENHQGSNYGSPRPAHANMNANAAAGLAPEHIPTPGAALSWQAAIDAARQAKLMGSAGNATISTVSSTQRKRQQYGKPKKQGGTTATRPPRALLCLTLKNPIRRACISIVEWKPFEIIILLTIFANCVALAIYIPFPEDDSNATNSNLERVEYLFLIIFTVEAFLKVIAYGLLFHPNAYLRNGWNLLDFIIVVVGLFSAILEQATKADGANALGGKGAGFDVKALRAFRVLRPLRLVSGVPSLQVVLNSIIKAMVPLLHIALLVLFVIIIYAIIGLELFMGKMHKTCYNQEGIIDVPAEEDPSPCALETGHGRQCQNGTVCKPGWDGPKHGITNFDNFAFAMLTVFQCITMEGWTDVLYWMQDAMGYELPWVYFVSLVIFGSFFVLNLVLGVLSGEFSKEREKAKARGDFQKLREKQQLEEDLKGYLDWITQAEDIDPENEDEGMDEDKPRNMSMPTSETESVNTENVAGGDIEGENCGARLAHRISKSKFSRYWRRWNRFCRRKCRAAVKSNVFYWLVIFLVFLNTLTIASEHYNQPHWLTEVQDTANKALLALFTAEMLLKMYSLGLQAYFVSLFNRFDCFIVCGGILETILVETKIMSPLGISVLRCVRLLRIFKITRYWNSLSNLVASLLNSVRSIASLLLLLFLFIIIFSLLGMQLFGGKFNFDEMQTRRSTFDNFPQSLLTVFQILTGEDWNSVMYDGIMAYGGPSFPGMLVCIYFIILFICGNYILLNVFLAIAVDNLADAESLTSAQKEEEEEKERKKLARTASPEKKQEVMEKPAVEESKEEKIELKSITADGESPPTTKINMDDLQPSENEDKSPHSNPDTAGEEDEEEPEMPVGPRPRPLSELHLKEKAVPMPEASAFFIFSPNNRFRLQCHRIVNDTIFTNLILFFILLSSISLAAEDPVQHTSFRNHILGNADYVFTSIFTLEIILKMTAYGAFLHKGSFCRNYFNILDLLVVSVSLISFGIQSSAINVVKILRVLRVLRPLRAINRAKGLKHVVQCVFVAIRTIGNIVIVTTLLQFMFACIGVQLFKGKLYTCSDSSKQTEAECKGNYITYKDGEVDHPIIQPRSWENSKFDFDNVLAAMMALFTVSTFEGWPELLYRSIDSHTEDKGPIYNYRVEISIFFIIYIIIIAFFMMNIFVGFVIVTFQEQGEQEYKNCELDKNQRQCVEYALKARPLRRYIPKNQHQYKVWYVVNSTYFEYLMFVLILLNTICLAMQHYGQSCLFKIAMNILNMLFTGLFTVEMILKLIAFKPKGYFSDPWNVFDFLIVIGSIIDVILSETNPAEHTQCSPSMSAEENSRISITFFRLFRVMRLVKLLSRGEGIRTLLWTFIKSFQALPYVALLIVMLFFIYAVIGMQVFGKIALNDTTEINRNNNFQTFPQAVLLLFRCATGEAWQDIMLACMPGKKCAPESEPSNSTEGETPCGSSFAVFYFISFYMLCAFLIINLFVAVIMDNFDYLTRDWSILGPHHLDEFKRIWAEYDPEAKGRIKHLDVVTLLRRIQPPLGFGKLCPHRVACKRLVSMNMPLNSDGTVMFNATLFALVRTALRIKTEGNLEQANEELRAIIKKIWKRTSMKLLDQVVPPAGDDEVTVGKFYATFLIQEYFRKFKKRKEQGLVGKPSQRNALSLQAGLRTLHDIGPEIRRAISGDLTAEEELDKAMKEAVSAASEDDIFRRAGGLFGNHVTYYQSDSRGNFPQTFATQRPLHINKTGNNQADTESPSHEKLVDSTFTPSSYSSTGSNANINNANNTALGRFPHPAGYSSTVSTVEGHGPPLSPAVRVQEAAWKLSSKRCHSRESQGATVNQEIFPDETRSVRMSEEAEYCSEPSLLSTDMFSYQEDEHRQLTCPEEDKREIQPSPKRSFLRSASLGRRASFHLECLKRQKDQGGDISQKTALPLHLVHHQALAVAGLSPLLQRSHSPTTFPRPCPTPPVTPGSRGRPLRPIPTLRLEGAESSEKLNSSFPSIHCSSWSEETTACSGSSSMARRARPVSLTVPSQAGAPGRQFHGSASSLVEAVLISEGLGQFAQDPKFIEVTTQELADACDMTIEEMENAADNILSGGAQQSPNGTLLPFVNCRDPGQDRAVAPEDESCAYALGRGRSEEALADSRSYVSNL
UniProt Q91YI4: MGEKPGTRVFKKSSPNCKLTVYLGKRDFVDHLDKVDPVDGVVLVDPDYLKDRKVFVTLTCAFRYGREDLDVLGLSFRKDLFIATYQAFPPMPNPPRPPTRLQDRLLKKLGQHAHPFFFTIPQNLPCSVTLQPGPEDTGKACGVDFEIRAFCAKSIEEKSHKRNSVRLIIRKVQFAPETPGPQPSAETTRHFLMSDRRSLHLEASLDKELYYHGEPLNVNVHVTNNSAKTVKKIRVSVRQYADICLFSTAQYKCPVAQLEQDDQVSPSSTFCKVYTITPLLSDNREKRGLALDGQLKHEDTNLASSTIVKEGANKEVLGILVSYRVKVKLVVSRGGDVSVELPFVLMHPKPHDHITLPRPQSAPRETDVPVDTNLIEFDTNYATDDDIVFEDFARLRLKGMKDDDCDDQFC

In assay [2] the target is CaV1.2 (α1-subunit), endogenous in mouse pancreatic islets (mouse (endogenous in pancreatic islets)) (UniProt Q01815). The assay is described as above.

Results are given in words; binding and its absence hold for the method and conditions named. In cells and extracts the contact can be indirect.

On to “CaV1.2 (α1-subunit), endogenous in mouse pancreatic islets (from UniProt Q01815 1-2139)”, for which, in assay [1], the binding entry is “no binding”.
For “β-arrestin-2 (barr2), endogenous in mouse pancreatic islets (from UniProt Q91YI4 1-410)”, the binding entry in assay [2] is “no binding”.

Values taken from paper PMC5296650.
